Reference: patent publication US20250186546A1, “Compositions and Methods to Prevent, Inhibit or Treat Autoimmune and Vascular Disease” (priority 2023, published 2025)
These are yes or no findings as the source states them, for the method shown. For some assays here: Binding seen in cells or lysates may run through a third protein. Some binding calls cover weakened binding; strength is not graded here.

Chains of the proteins cited; added tags and fusions are not shown. Residues count along the entry.
UniProt Q9DCD6, residues 1-116: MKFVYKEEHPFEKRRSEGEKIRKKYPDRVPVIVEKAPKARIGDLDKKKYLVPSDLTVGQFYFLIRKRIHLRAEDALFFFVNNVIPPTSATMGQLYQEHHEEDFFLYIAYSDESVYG
UniProt Q6VNB8: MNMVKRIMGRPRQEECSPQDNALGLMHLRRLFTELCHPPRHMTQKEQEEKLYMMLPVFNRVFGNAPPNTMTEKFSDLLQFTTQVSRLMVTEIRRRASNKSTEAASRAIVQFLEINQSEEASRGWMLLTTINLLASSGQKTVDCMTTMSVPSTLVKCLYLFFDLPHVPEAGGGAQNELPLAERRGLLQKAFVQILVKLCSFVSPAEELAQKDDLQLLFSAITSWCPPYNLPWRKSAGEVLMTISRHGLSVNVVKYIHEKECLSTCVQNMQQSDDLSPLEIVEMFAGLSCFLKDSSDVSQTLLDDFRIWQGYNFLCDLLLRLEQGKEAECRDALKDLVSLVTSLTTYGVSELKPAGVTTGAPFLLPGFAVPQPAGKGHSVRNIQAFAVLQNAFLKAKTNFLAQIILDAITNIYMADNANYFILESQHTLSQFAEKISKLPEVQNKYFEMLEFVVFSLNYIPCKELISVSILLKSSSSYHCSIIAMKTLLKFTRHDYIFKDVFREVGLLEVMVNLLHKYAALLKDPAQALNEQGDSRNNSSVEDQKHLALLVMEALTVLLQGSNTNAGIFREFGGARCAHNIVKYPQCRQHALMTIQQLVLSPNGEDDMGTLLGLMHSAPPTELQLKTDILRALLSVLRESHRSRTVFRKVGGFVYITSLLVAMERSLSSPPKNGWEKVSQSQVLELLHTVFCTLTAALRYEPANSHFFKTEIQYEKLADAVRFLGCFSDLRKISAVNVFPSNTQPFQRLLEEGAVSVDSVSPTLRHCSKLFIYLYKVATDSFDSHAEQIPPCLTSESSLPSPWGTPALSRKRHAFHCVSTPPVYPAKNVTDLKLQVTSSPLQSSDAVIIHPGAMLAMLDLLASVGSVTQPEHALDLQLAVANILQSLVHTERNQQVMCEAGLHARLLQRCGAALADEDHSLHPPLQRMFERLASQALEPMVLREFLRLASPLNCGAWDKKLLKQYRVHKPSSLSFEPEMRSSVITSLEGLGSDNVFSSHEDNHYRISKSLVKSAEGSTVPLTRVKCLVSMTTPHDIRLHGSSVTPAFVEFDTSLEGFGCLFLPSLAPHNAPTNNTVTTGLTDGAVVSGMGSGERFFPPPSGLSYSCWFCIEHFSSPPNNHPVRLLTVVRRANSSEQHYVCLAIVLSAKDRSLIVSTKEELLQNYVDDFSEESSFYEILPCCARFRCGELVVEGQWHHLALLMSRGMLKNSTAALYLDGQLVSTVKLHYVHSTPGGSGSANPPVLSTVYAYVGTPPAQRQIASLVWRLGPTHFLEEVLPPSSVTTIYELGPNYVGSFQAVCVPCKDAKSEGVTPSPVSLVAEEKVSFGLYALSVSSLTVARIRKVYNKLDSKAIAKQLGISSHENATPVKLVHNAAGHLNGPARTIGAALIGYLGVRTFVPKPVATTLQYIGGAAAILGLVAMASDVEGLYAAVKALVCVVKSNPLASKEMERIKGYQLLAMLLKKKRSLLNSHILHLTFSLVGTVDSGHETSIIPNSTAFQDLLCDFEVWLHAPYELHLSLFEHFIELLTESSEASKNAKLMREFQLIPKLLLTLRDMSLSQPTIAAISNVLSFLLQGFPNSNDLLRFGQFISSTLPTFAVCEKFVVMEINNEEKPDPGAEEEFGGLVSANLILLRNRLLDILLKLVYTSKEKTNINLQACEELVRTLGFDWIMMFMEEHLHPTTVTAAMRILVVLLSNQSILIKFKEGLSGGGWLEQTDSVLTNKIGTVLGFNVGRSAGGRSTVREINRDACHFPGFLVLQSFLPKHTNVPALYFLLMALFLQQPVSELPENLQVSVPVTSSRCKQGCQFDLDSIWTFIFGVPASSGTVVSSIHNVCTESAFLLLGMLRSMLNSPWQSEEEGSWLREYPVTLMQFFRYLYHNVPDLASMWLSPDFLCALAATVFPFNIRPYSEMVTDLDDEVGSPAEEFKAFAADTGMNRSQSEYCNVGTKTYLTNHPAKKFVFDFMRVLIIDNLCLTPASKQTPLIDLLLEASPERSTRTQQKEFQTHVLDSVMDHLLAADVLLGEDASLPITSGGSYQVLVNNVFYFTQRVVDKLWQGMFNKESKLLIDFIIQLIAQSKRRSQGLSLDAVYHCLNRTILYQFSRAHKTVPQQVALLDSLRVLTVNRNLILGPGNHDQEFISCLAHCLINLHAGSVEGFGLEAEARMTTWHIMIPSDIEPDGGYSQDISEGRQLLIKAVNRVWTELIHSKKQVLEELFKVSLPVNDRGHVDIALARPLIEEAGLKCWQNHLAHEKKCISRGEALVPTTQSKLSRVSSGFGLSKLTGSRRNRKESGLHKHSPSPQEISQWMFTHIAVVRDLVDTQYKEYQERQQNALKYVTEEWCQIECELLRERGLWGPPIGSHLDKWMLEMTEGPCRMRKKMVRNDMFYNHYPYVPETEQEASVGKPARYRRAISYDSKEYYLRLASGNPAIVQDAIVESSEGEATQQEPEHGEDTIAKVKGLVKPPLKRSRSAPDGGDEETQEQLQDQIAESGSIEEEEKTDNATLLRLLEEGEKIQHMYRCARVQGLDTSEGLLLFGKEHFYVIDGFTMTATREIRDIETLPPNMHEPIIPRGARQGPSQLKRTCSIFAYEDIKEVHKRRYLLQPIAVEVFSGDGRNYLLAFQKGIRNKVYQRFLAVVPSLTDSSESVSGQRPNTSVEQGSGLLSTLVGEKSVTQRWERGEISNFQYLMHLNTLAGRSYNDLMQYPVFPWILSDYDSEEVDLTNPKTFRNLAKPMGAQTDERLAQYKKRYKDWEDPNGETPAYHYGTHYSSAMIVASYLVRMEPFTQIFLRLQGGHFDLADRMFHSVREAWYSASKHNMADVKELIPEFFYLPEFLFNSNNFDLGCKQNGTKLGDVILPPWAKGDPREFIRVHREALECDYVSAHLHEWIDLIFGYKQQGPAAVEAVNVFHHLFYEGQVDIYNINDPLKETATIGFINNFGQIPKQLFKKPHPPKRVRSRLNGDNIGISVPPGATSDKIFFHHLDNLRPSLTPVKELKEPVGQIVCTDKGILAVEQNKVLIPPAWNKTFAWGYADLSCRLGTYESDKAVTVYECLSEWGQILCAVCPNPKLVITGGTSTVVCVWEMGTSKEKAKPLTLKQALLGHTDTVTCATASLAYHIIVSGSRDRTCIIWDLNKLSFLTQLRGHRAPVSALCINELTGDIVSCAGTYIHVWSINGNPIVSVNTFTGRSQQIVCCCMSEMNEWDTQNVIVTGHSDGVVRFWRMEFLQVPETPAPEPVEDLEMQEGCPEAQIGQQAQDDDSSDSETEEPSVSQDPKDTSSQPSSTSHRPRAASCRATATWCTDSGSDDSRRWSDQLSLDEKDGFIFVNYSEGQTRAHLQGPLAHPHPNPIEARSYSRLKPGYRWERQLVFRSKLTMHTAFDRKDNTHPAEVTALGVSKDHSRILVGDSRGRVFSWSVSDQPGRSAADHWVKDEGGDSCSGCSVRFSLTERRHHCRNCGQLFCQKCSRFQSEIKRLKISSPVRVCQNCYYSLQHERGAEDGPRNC

Key:
[1] = molecular target: GABARAP, endogenous protein of mouse bone marrow-derived macrophages (mouse) (UniProt Q9DCD6); test: co-immunoprecipitation from BMDM lysate (discussion of Example 1)
[2] = molecular target: GABARAP, endogenous protein of mouse bone marrow-derived macrophages (mouse) (UniProt Q9DCD6); test: legend of the schematic summary FIG. 7A
[3] = molecular target: GABARAP, endogenous protein of mouse bone marrow-derived macrophages (mouse) (UniProt Q9DCD6); test: pull-down assay, macrophage lysates
[4] = molecular target: GABARAP, endogenous protein of mouse bone marrow-derived macrophages (mouse) (UniProt Q9DCD6); test: co-immunoprecipitation from BMDM lysate with anti-GABARAP antibody and protein A/G beads, WDFY3 immunoblot
[5] = molecular target: GABARAP, endogenous protein of mouse bone marrow-derived macrophages (mouse) (UniProt Q9DCD6); test: co-immunoprecipitation from BMDM lysate (summary sentence of Example 1)

Measured: binding

WDFY3 (WD repeat and FYVE domain containing 3), endogenous protein of mouse bone marrow-derived macrophages (from UniProt Q6VNB8 1-3508)
binds: all assays above
